Data as given in PubChem BioAssay AID504774 (Drosophila RNAi Screening Center, 2011)
In all, the deposit lists about 23,000 reagents; below is a random part of those with a known target gene and a result. 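Values are quantile-normalised luminescence on an arbitrary scale; higher means more cells surviving MMS.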 No sequences are given here.

Aim: 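Knock-downs that shift viability of MMS-exposed cells relative to untreated ones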 (primary screen)
Cells: Drosophila Kc167 cells
Reagents: long dsRNA against Drosophila genes, about 0.25 µg dsRNA per well
Time to read-out: about 6 days: 3 days knock-down, then 3 days with or without MMS
Challenge: methyl methanesulphonate 0.004% (w/v) for 3 days after knock-down
Detection: 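Viability in wells given MMS, read as ATP luminescence, normalised by quantiles plate by plate and averaged across replicates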
Direction: mean viability with MMS and viability with MMS: higher = more surviving cells after MMS

no.	target gene	dsRNA	mean viability with MMS	viability with MMS, replicate 1	viability with MMS, replicate 2
1	inaD	DRSC04694	3.60e6	4.22e6	3.95e6
2	CG34404	DRSC15335	3.50e6	4.08e6	3.87e6
3	CG34404	DRSC15978	3.39e6	3.81e6	3.85e6
4	CG30095	DRSC07175	3.56e6	3.99e6	4.07e6
5	Sirt1	DRSC03435	3.37e6	3.62e6	3.95e6
6	CG6345	DRSC16024	3.78e6	4.17e6	4.22e6
7	CG14443	DRSC17936	3.63e6	4.12e6	4.12e6
8	elav	DRSC18772	3.52e6	3.97e6	4.02e6
9	LSm1	DRSC04458	3.72e6	4.29e6	4.08e6
10	TpnC41C	DRSC04916	3.59e6	4.05e6	4.10e6
11	Cpr97Ea	DRSC15974	3.70e6	4.23e6	4.12e6
12	GCS2alpha	DRSC21036	3.76e6	4.20e6	4.20e6
13	cathD	DRSC07588	3.50e6	4.09e6	3.86e6
14	Lip2	DRSC02577	3.57e6	4.15e6	3.97e6
15	Lip2	DRSC02578	3.52e6	4.16e6	3.84e6
16	otk2	DRSC07303	3.57e6	4.06e6	3.99e6
17	GNBP2	DRSC10404	3.59e6	4.10e6	4.05e6
18	CG32161	DRSC22128	3.50e6	3.97e6	3.97e6
19	dbo	DRSC11339	3.69e6	4.14e6	4.17e6
20	CR31541 (retired record)	DRSC21876	3.72e6	4.07e6	4.27e6
21	CG12729	DRSC17884	3.57e6	4.07e6	4.04e6
22	Marcal1	DRSC02718	3.50e6	4.04e6	3.90e6
23	Tm2	DRSC16887	3.45e6	4.00e6	3.80e6
24	CG30416	DRSC04565	3.44e6	3.86e6	3.91e6
25	l(2)34Fc	DRSC01910	3.61e6	4.13e6	4.05e6
26	PIG-C	DRSC08241	3.48e6	3.99e6	3.92e6
27	CG14589	DRSC04866	3.48e6	4.03e6	3.85e6
28	CG32188	DRSC09510	3.69e6	4.39e6	3.94e6
29	CG33500	DRSC09115	3.55e6	4.09e6	3.96e6
30	CG14377	DRSC14837	3.64e6	4.16e6	4.12e6
31	CG33552	DRSC01551	3.49e6	3.92e6	4.00e6
32	CG17187	DRSC15181	3.59e6	4.04e6	4.06e6
33	MESR3	DRSC02463	3.50e6	3.98e6	3.97e6
34	CG13081	DRSC02185	3.53e6	4.04e6	3.97e6

Next part (9 carried over from the part before).
no.	target gene	dsRNA	mean viability with MMS	viability with MMS, replicate 1	viability with MMS, replicate 2
26	PIG-C	DRSC08241	3.48e6	3.99e6	3.92e6
27	CG14589	DRSC04866	3.48e6	4.03e6	3.85e6
28	CG32188	DRSC09510	3.69e6	4.39e6	3.94e6
29	CG33500	DRSC09115	3.55e6	4.09e6	3.96e6
30	CG14377	DRSC14837	3.64e6	4.16e6	4.12e6
31	CG33552	DRSC01551	3.49e6	3.92e6	4.00e6
32	CG17187	DRSC15181	3.59e6	4.04e6	4.06e6
33	MESR3	DRSC02463	3.50e6	3.98e6	3.97e6
34	CG13081	DRSC02185	3.53e6	4.04e6	3.97e6
35	CG14340	DRSC00370	3.59e6	4.06e6	4.10e6
36	CG9577	DRSC20693	3.59e6	4.06e6	4.05e6
37	sad	DRSC16630	3.51e6	3.98e6	4.00e6
38	CG32021 (retired record)	DRSC17206	3.48e6	3.96e6	3.95e6
39	CG12194	DRSC00345	3.56e6	4.01e6	4.04e6
40	Vajk3	DRSC01883	3.75e6	4.09e6	4.46e6
41	CG13675	DRSC08908	3.28e6	3.75e6	3.71e6
42	CG13675	DRSC10034	2.66e6	3.43e6	3.44e6
43	CG13675	DRSC23124	3.68e6	4.28e6	4.08e6
44	T48	DRSC16878	3.56e6	4.06e6	4.01e6
45	ken	DRSC04696	2.46e6	3.29e6	2.30e6
46	ken	DRSC23196	3.57e6	4.08e6	4.04e6
47	Pvf2	DRSC00968	1.69e6	3.78e6	3.92e6
48	Pvf2	DRSC02283	3.21e6	3.55e6	3.54e6
49	Cyt-c-d	DRSC03309	3.49e6	3.93e6	3.99e6
50	CG18563	DRSC02676	3.46e6	3.98e6	3.88e6
51	CG6310	DRSC10619	3.75e6	4.10e6	4.32e6
52	CG5568	DRSC10518	3.68e6	4.08e6	4.26e6
53	CG5568	DRSC22816	3.50e6	4.05e6	3.92e6
54	fbp	DRSC02077	3.71e6	4.08e6	4.38e6
55	dj	DRSC12625	3.39e6	3.85e6	3.87e6
56	CG10064	DRSC09689	3.47e6	4.01e6	3.87e6
57	TwdlS	DRSC14737	3.44e6	3.95e6	3.81e6
58	CG42594	DRSC18053	2.44e6	3.32e6	3.30e6
59	CG42594	DRSC18408	3.56e6	4.11e6	3.99e6
60	CG42594	DRSC22978	2.48e6	2.62e6	2.84e6
61	Tsp42Ek	DRSC06187	3.68e6	4.14e6	4.11e6
62	Kebab	DRSC00827	3.62e6	4.03e6	4.20e6
63	CG12608	DRSC19472	3.71e6	4.11e6	4.13e6
64	aurB	DRSC03548	3.31e6	3.70e6	3.75e6
65	aurB	DRSC23324	3.27e6	3.78e6	3.64e6
66	CG2790	DRSC04045	3.51e6	3.98e6	3.88e6
67	PolI	DRSC16267	3.48e6	3.94e6	3.98e6
68	CG15317	DRSC18005	3.76e6	4.28e6	4.19e6
